# Reference: the supplement of paper PMC4604168 (melanoma cell lines)
# Some of the results follow. Many values rest on one well or one pass, so single values are uncertain.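 Cells were imaged in 1,536-well plates, and nuclei stained with an antibody against cleaved PARP were counted against all DNA-stained nuclei to give the apoptosis fraction. Screening doses were chosen to leave most cells alive, and resting and induced cleaved-PARP levels differ strongly between cell lines.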
# Columns and labels:
# Experiment in all cases: cleaved PARP positive nuclei fraction relative to DMSO control; melanoma cells; higher = more apoptosis
# Conditions in all cases: library dose: low library concentration; 72 h
# MeWo = tested on: MeWo
# RPMI7951 = tested on: RPMI7951
# RVH-421 = tested on: RVH-421
# SkMel28 = tested on: SkMel28
# SkMel30 = tested on: SkMel30
# SkMel5 = tested on: SkMel5
# UACC257 = tested on: UACC257
# UACC62 = tested on: UACC62
# SkMel2 = tested on: SkMel2
# MZ2-MEL = tested on: MZ2-MEL
Compound,cleaved PARP positive nuclei fraction (MeWo) [%],cleaved PARP positive nuclei fraction (RPMI7951) [%],cleaved PARP positive nuclei fraction (RVH-421) [%],cleaved PARP positive nuclei fraction (SkMel28) [%],cleaved PARP positive nuclei fraction (SkMel30) [%],cleaved PARP positive nuclei fraction (SkMel5) [%],cleaved PARP positive nuclei fraction (UACC257) [%],cleaved PARP positive nuclei fraction (UACC62) [%],cleaved PARP positive nuclei fraction (SkMel2) [%],cleaved PARP positive nuclei fraction (MZ2-MEL) [%]
"CO[C@H]1C[C@@H]2CC[C@@H](C)[C@@](O)(O2)C(=O)C(=O)N2CCCC[C@H]2C(=O)O[C@H]([C@H](C)C[C@@H]2CC[C@@H](OCCO)[C@H](OC)C2)CC(=O)[C@H](C)/C=C(\C)[C@@H](O)[C@@H](OC)C(=O)[C@H](C)C[C@H](C)/C=C/C=C/C=C/1C [everolimus] + O=C(Oc1ccc([N+](=O)[O-])cc1)N1CCC(C(O)(c2ccc3c(c2)OCO3)c2ccc3c(c2)OCO3)CC1 [JZL184] (first compound 0.02 µM, partner dose 1 µM)",118,120,123,576,39.6,86,409,389,–,–
"N.N.[Cl][Pt][Cl] [cisplatin] + O=C(O)c1ccc(-c2c[nH]c3ncc(-c4ccccc4)cc23)cc1C1CCCC1 [GSK650394] (first compound 1.6 µM, partner dose 0.16 µM)",77.6,76.8,52.8,86.5,73.2,194,79.1,73.2,66.2,–
"Nc1ccn([C@@H]2O[C@H](CO)[C@@H](O)C2(F)F)c(=O)n1 [gemcitabine] + Cc1cc(SCc2sc(-c3ccc(C(F)(F)F)c(F)c3)nc2C)ccc1OCC(=O)O [GW0742] (first compound 0.0004 µM, partner dose 2 µM)",101,83,115,162,78.5,81.8,180,110,–,–
"COc1ccc(C2=N[C@@H](c3ccc(Cl)cc3)[C@@H](c3ccc(Cl)cc3)N2C(=O)N2CCNC(=O)C2)c(OC(C)C)c1 [Nutlin-3] + C[C@]12O[C@H](C[C@]1(O)CO)n1c3ccccc3c3c4c(c5c6ccccc6n2c5c31)CNC4=O [Lestaurtinib] (first compound 0.1 µM, partner dose 0.004 µM)",42.3,86.5,66.5,121,110,–,–,159,–,85.3
"C[C@]12O[C@H](C[C@]1(O)CO)n1c3ccccc3c3c4c(c5c6ccccc6n2c5c31)CNC4=O [Lestaurtinib] + C=CCNC1=C2C[C@@H](C)C[C@H](OC)[C@H](O)[C@@H](C)/C=C(\C)[C@H](OC(N)=O)[C@@H](OC)/C=C\C=C(/C)C(=O)NC(=CC1=O)C2=O [Tanespimycin] (first compound 0.004 µM, partner dose 0.002 µM)",83.1,94.3,138,61.7,24.5,–,–,197,–,117
"C[C@]12O[C@H](C[C@]1(O)CO)n1c3ccccc3c3c4c(c5c6ccccc6n2c5c31)CNC4=O [Lestaurtinib] + OCc1c[nH]c2ccccc12 [Indole-3-carbinol] (first compound 0.004 µM, partner dose 0.8 µM)",690,80.6,105,86.5,76.3,–,–,132,–,161
"COc1cc([C@@H]2c3cc4c(cc3[C@@H](O[C@@H]3O[C@@H]5CO[C@@H](C)O[C@H]5[C@H](O)[C@H]3O)[C@H]3COC(=O)[C@H]23)OCO4)cc(OC)c1O [etoposide] + N.N.[Cl][Pt][Cl] [cisplatin] (first compound 0.02 µM, partner dose 1.6 µM)",99.1,64.1,119,93,126,–,–,82.4,105,–
"C[C@@H](N)c1ccc(C(=O)Nc2ccnc3[nH]ccc23)cc1 + C[C@]12O[C@H](C[C@]1(O)CO)n1c3ccccc3c3c4c(c5c6ccccc6n2c5c31)CNC4=O [Lestaurtinib] (first compound 0.4 µM, partner dose 0.004 µM)",209,137,143,65.3,64,–,–,171,–,342
"Cn1cncc1[C@@](N)(c1ccc(Cl)cc1)c1ccc2c(c1)c(-c1cccc(Cl)c1)cc(=O)n2C [tipifarnib] + C/C(O)=C(\C#N)C(=O)Nc1cc(Br)ccc1Br [LFM-A13] (first compound 0.01 µM, partner dose 2 µM)",203,82.2,65.3,121,49.3,184,94.8,68.8,–,–
"C[C@]12O[C@H](C[C@]1(O)CO)n1c3ccccc3c3c4c(c5c6ccccc6n2c5c31)CNC4=O [Lestaurtinib] + N.N.[Cl][Pt][Cl] [cisplatin] (first compound 0.004 µM, partner dose 1.6 µM)",124,80,96.4,89.4,64.3,–,–,92,–,85.3
"Clc1ccc(Nc2nnc(Cc3ccncc3)c3ccccc23)cc1 [vatalanib] + Cc1cc(SCc2sc(-c3ccc(C(F)(F)F)c(F)c3)nc2C)ccc1OCC(=O)O [GW0742] (first compound 2 µM, partner dose 2 µM)",112,155,107,126,55.5,55.2,173,319,72.5,–
"C[C@]12O[C@H](C[C@]1(O)CO)n1c3ccccc3c3c4c(c5c6ccccc6n2c5c31)CNC4=O [Lestaurtinib] + Nc1ccn([C@@H]2O[C@H](CO)[C@@H](O)C2(F)F)c(=O)n1 [gemcitabine] (first compound 0.004 µM, partner dose 0.0004 µM)",180,59.5,46.4,204,96,–,–,105,–,122
"C[C@]12O[C@H](C[C@]1(O)CO)n1c3ccccc3c3c4c(c5c6ccccc6n2c5c31)CNC4=O [Lestaurtinib] + CN(c1ncccc1CNc1nc(Nc2ccc3c(c2)CC(=O)N3)ncc1C(F)(F)F)S(C)(=O)=O [PF562271] (first compound 0.004 µM, partner dose 0.08 µM)",69.6,61.2,78.8,85.1,34,–,–,143,–,55.3
